Data taken from publication PMC9409194.
The exact form of at least one protein or probe is not confirmed. A weaker result is weaker than the reference pair of the same experiment.

Chains of the proteins cited; added tags and fusions are not shown. Residues count along the entry.
UniProt O60479, 129-188: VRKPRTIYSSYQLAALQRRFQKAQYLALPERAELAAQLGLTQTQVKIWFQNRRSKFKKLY

Target: Dlx3-HD (human) (UniProt O60479)
Experiment: NMR (1H/15N-HSQC CSP)
Settings: 500 mM NaCl, 35 C, affinity much weaker than at 100 and 250 mM, 10 mM sodium phosphate pH 6.0, 100, 250 or 500 mM NaCl, 90% H2O/10% D2O, recombinant protein, protein details: Ni-NTA purified (His-tag implied)

Q: Does CGTAATTGCC (double strand) [dlxDNA] bind?
A: Result: binds more weakly
